Article PMC10873425
No constants are given. Whether binding was seen depends on the method and setting. Binding seen in cells or lysates may run through a third protein. Some results given as binding are weak or reduced against the parent protein; the word gives no strength.

Chains of the proteins cited; added tags and fusions are not shown.
UniProt P09528: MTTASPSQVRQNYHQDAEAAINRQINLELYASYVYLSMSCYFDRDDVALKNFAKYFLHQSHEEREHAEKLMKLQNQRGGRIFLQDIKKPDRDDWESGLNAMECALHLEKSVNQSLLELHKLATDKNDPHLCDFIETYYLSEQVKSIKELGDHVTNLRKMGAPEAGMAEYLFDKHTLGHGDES

Key:
[1] = molecular target: ferritin heavy chain 1 (FTH1) (mouse (endogenous in MOVAS)) (UniProt P09528); experiment: condition: only normal condition, without Ang II+Bleo; proximity ligation; in situ PLA (Duolink In Situ Red, anti-NCOA4 and anti-ferritin) in cultured VSMCs in normal condition (no Ang II+Bleo)
[2] = molecular target: ferritin heavy chain 1 (FTH1) (mouse (endogenous in MOVAS)) (UniProt P09528); experiment: co-IP; FTH1 and NCOA4 in cultured VSMCs (MOVAS) treated with Ang II+Bleo; NP-40 lysate, anti-FTH1, protein A/G PLUS-Agarose, immunoblotting; with or without PPARγ activation (rosiglitazone)
[3] = molecular target: ferritin heavy chain 1 (FTH1) (mouse (endogenous in MOVAS)) (UniProt P09528); experiment: proximity ligation; in situ PLA (Duolink In Situ Red, anti-NCOA4 and anti-ferritin) in cultured VSMCs upon Ang II+Bleo treatment; with or without rosiglitazone

B1: nuclear receptor coactivator 4 (NCOA4), endogenous (protein, UniProt Q5U4H9 1-625)
chain: MNTSLEQSGCYSNRETLLRCSDARRELELAIGGVLRAEQQIKDNLREVKAQIHSCISRHLECLRSREVWLNEQVDLIYQLKEETLQQQAQQLYWLMGQFNCLIHQLEYTQNKDLANQVSVCLERLGSLALKPEDSTVLLFEADTSALRQTITTFGSLKTIQIPEHLMAHASSSSIGPFLEKRGYIQVPEQKSASSGTAVSLSEWLLVSKPAIGLQAPYVPSTNPQDWLIPKQTSENSQTSARACSFFSDAWGNLKGLENWLLNSHQQEIAGKPSSSKCNSHCSTSSFSPEAEKAEDVELLDQDELDLSDWLVTPQEPCELEKPVDGSWETSEKFKLLFQVFREPYNVSDWLVKPDSCTNCQGNQPRGVEIENLGNLKCLNDHLEAKKSVSVPGATISDGWLAQNHQDTWKVEEVCKANEPCTSFAECVCDDNCEKEAMYKWLLKKGGKDKNGMPMEPKSEPEKHRESLTLWLCPSRNELTEQAKAPKAMAPARIADSFHVIKNSSLSEWLMGPTCKGGPKDVPNTEERAGKEMLQSSMATSWCPFNTADWVLPGKKVGSLSQFPSGEDKWLLRKKAQEAFLNSPLQEERNFRPDCYGLPAVCDLFACMQLKVDKEKWLYRTPLQM
binding [1]: no binding
binding [2]: binds
binding [3]: binds
